# PubChem BioAssay AID743121 – NCATS | 2013
# Assay: 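Genes whose silencing strengthens cell killing by camptothecin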 (primary screen)
# Cell system: MDA-MB-231 cells, a human breast cancer line
# Reagent: single siRNA against human genes, 20 nM siRNA (0.8 pmol per well)
# Duration: 120 h (drug added 48 h after transfection, read 72 h later)
# Conditions: camptothecin 20 nM (about EC30) for 72 h; vehicle 0.1% DMSO in parallel plates
# Read-out: 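CellTiter-Glo ATP signal, scaled to control siRNA as percent viability; sensitisation given as log2 of untreated divided by camptothecin-treated viability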
# Direction: log2 vehicle/camptothecin viability: higher = stronger sensitisation to camptothecin; viability with camptothecin and viability without drug: higher = more viable cells
# Active means: 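Active genes have an RSA gene-level p-value below 0.001, computed from the ratios of their separate siRNAs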
# Shown is one part, drawn at random, of about 26,000 deposited reagents. 167 of them (0.63%) count as active. 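Calls are per gene from RSA p-values that are not deposited; an individual active-marked siRNA can sensitise only weakly.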 The numbers tell different reagents against one gene apart.
Target gene,siRNA no.,log2 vehicle/camptothecin viability,viability with camptothecin (% of control),viability without drug (% of control),outcome
USP33,1,0.772,27.1,46.4,inactive
USP33,2,-0.215,118,101,inactive
USP33,3,-0.104,74,68.9,inactive
USP33,4,-0.309,109,87.8,inactive
RFXANK,1,-0.215,41,35.3,inactive
RFXANK,2,0.0529,92.2,95.6,inactive
RFXANK,3,0.41,46.3,61.5,inactive
RFXANK,4,-0.147,91.6,82.8,inactive
BTC,1,-0.0966,102,95,inactive
BTC,2,-0.28,108,89.2,inactive
BTC,3,1.35,10.1,25.9,inactive
BTC,4,-0.248,81.7,68.8,inactive
ABCA10,1,-0.2,71.5,62.3,inactive
ABCA10,2,0.0101,86.1,86.7,inactive
ABCA10,3,-0.274,86.5,71.5,inactive
ABCA10,4,-0.324,122,97.1,inactive
ZNF85,1,-0.0416,100,97.6,inactive
ZNF85,2,-0.157,68.8,61.7,inactive
ZNF85,3,-0.0397,101,97.8,inactive
ZNF85,4,0.601,64.1,97.2,inactive
LGALS3BP,1,-0.312,68.1,54.8,inactive
LGALS3BP,2,-0.248,68.3,57.5,inactive
LGALS3BP,3,-0.275,58.5,48.4,inactive
LGALS3BP,4,-0.104,3.2,2.98,inactive
BOC,1,0.31,40.7,50.5,inactive
BOC,2,-0.47,90,64.9,inactive
BOC,3,0.278,59.9,72.7,inactive
RBBP7,1,-0.344,80.1,63.1,inactive
RBBP7,2,0.0483,103,106,inactive
RBBP7,3,-0.288,94.6,77.5,inactive

Only “viability with camptothecin (% of control)” (4 entries from above):
ZNF85 #4	64.1
LGALS3BP #1	68.1
LGALS3BP #2	68.3
LGALS3BP #3	58.5
